At least one compound was matched to its structure with a doubt left.
Legend:
human IDO1 protein = test: Western blot of FLAG-tagged human IDO1 protein level in SW837 cells after addition of dasatinib; assay type: cell-based; conditions: SW837 transiently expressing FLAG-tagged wild-type human IDO1; dasatinib 0.3 μM or 3 μM added 16 or 34 hours after transfection; lysis at 40 hours; FIG. 18
mouse cancer cells MC38 = test: Tumor volume in C57BL/6 mice implanted with MC38 mouse cancer cells; assay type: in vivo; conditions: MC38 in C57BL/6; dasatinib 0.2 mg/animal oral once daily from Day 4; anti-PD-1 antibody 200 μg/animal i.p. Day 4, 6, 8; n=5; FIG. 20
[1] = tested on: mouse IFN-γ production by cytotoxic T cells; test: Antigen-specific IFN-γ production by CD8-positive T cells from MC38-implanted mice; assay type: in vivo; conditions: spleen cells isolated 20 days after MC38 implantation; gp70 peptide restimulation; ELISA; FIG. 21
[2] = tested on: mouse cancer cells MCA205 IDO1WT; test: Tumor volume in C57BL/6 mice implanted with MCA205 IDO1WT cells (anti-PD-1 antibody and dasatinib); assay type: in vivo; conditions: MCA205 IDO1WT in C57BL/6; dasatinib 0.2 mg/animal oral once daily from Day 4; anti-PD-1 antibody 200 μg/animal i.p. Day 4, 6, 8; n=5; FIG. 22

**Q.** Which “amount of IDO1 protein” value (human IDO1 protein) does the source give for `Cc1nc(Nc2ncc(C(=O)Nc3c(C)cccc3Cl)s2)cc(N2CCN(CCO)CC2)n1` [dasatinib] here?
**A.** significantly reduced the amount of IDO1 protein in a concentration-dependent and time-dependent manner

**Q.** And the tumor volume (mouse cancer cells MC38)?
**A.** a smaller tumor was formed as compared to the group that did not receive any of the drugs

**Q.** What about the “mouse IFN-γ production (index of anti-tumor immunity)” value [1] of the same compound?
**A.** the production of IFN-γ was increased

**Q.** And the tumor volume [2]?
**A.** a smaller tumor was formed as compared with the group to which neither drug was administered

Source: US11752150B2, “Anti-tumor immunotherapy enhancer” (Nobuo Tsukamoto, priority 2017, dated 2023)
